Results are given in words; binding and its absence hold for the method and conditions named. In cells and extracts the contact can be indirect. Some binding calls cover weakened binding; strength is not graded here.
Target: FLAG-tagged SF3B1 K700E (UniProt O75533)
Assay: co-IP

By UniProt entry, the sequences of proteins in these tests, tags left out. Where a name states a change or a piece, a line headed by the entry shows the natural chain unless it says otherwise.
UniProt O75533, whole entry, looked up, stated change not applied: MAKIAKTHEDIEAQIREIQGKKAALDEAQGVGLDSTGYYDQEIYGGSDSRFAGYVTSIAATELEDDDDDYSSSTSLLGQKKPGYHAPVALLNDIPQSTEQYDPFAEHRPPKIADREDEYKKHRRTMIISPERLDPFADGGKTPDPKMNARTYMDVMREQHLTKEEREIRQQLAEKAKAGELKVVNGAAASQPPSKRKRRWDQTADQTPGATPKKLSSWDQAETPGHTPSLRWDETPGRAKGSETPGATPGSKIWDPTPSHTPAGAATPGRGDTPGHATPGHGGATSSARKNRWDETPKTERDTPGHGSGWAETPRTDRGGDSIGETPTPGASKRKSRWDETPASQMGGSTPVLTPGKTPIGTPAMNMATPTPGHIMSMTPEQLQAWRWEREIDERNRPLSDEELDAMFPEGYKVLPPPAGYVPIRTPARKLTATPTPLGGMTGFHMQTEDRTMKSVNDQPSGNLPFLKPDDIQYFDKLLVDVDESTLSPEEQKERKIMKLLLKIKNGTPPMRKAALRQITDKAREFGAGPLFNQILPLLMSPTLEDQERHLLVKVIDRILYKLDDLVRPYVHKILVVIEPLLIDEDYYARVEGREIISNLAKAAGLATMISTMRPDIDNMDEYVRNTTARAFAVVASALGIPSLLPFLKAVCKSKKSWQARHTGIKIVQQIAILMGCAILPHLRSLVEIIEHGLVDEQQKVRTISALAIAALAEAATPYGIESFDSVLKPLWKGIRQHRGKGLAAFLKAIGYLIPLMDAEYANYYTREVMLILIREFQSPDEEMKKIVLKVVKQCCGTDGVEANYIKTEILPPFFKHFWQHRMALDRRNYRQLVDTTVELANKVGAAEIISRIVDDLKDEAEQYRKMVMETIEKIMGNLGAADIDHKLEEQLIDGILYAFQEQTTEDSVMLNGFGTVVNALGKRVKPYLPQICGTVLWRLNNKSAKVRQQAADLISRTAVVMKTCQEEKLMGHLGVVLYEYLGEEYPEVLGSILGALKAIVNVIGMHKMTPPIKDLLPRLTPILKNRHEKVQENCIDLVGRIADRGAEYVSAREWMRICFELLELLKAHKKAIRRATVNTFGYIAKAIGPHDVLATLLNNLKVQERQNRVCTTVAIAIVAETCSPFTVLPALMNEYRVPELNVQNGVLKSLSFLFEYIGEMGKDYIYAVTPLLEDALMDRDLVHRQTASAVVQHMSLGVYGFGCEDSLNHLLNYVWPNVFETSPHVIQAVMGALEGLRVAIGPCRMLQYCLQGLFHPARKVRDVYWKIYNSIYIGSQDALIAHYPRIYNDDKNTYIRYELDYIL
UniProt Q16665, whole entry: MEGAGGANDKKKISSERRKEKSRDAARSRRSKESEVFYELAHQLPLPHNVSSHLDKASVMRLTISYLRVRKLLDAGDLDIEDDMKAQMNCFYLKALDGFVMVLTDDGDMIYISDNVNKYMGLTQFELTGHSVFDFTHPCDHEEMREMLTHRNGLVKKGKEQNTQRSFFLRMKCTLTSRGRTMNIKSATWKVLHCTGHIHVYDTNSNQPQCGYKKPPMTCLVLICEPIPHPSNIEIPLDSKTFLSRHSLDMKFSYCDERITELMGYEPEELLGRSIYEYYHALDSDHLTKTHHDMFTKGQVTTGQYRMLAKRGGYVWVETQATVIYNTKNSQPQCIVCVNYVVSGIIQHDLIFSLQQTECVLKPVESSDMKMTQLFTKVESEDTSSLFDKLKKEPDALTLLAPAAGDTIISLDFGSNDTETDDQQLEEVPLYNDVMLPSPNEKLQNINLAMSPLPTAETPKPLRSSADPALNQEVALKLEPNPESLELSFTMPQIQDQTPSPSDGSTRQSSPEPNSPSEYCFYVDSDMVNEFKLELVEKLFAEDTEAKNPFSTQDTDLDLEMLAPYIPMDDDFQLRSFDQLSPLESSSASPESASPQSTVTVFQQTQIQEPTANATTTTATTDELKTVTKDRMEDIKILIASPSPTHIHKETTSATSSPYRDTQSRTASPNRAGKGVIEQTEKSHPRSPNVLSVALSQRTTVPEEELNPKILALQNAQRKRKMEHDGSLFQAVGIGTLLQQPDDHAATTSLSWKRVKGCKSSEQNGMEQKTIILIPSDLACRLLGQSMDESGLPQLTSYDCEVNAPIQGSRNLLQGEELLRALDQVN

For “HA-tagged WT full length (FL) HIF1α (from UniProt Q16665 1-826)”, the binding was “binds”.
